Paper PMC9301129
Results are given in words; binding and its absence hold for the method and conditions named. Binding seen in cells or lysates may run through a third protein. Some binding calls cover weakened binding; strength is not graded here. Where a sequence is shown, tags or fusion partners need not be part of it.

Key:
[1] = target: T1, TLR9-myc (in HEK293T cells) (UniProt Q9EQU3); experiment: co-IP; HEK293T cells co-expressing UNC93B1-HA (wild type or mutant) and TLR9-myc or TLR7-myc; lysis in 50 mM Tris-HCl pH 7.5, 150 mM NaCl, 5 mM EDTA, 1% digitonin; TLR precipitated with anti-myc (9B11) and Protein A agarose at 4 °C; UNC93B1 detected with anti-HA
T1 sequence: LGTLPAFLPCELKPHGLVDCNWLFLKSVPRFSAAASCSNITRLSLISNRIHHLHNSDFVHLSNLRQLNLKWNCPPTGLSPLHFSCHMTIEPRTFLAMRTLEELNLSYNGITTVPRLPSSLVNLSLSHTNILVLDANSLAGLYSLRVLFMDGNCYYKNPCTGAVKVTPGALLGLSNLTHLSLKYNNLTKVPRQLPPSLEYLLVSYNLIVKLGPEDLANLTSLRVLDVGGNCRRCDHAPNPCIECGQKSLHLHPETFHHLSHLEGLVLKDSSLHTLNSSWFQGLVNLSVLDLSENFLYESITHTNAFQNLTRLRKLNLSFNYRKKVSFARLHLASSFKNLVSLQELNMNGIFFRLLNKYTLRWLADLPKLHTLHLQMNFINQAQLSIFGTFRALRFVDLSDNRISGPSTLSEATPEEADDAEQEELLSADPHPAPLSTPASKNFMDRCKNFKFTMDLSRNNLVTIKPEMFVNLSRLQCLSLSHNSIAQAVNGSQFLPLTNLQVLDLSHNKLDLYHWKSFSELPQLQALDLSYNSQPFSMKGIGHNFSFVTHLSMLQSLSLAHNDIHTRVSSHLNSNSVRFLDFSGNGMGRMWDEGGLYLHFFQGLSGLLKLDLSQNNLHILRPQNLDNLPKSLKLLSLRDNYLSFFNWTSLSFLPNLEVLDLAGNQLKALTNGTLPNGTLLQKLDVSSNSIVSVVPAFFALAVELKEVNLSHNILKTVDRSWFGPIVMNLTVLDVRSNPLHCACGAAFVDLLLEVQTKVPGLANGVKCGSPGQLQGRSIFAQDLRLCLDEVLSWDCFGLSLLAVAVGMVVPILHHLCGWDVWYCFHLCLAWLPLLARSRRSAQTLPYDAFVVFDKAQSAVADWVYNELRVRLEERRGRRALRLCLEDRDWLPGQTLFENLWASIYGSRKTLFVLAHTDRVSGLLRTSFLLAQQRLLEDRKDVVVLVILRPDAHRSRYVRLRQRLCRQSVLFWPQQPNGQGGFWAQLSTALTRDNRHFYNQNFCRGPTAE

[2] = target: T2, TLR7-myc (UniProt P58681); experiment: as above
T2 sequence: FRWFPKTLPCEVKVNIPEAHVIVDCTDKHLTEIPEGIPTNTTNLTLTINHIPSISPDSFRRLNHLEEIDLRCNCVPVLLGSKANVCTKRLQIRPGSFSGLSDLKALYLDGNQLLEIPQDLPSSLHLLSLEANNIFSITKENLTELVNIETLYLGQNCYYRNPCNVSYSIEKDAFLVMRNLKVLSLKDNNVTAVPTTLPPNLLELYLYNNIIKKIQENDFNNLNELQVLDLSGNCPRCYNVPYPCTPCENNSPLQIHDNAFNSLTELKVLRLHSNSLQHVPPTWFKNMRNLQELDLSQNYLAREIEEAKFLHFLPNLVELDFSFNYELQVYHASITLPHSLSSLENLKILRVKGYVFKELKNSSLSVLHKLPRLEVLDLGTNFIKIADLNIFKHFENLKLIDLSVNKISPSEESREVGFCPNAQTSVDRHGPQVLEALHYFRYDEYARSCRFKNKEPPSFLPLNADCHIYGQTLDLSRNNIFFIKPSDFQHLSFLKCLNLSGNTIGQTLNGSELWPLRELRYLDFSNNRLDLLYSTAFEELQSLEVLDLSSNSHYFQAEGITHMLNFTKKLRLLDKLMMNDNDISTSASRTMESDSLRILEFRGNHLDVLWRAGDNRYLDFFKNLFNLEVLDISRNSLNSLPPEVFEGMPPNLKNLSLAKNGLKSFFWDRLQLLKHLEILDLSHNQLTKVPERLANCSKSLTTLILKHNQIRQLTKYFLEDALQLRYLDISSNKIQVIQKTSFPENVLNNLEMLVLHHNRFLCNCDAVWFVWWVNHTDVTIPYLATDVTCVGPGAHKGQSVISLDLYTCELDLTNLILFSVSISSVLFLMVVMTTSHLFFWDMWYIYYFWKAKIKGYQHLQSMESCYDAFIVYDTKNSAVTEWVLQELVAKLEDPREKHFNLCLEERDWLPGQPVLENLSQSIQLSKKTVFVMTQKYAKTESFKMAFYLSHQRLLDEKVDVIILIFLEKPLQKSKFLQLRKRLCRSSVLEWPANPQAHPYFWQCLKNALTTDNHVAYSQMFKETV

[3] = target: T3, TLR9-myc (in UNC93B1 KO iBMDMs) (UniProt Q9EQU3); experiment: co-IP; phagosomes (magnetic beads, 4 h) isolated from UNC93B1 KO iBMDMs expressing TLR9-myc and UNC93B1-GFP (wild type or mutant); phagosomes lysed in 1% Triton X-100 buffer; TLR9 precipitated with anti-myc; UNC93B1 detected with anti-GFP
T3 sequence: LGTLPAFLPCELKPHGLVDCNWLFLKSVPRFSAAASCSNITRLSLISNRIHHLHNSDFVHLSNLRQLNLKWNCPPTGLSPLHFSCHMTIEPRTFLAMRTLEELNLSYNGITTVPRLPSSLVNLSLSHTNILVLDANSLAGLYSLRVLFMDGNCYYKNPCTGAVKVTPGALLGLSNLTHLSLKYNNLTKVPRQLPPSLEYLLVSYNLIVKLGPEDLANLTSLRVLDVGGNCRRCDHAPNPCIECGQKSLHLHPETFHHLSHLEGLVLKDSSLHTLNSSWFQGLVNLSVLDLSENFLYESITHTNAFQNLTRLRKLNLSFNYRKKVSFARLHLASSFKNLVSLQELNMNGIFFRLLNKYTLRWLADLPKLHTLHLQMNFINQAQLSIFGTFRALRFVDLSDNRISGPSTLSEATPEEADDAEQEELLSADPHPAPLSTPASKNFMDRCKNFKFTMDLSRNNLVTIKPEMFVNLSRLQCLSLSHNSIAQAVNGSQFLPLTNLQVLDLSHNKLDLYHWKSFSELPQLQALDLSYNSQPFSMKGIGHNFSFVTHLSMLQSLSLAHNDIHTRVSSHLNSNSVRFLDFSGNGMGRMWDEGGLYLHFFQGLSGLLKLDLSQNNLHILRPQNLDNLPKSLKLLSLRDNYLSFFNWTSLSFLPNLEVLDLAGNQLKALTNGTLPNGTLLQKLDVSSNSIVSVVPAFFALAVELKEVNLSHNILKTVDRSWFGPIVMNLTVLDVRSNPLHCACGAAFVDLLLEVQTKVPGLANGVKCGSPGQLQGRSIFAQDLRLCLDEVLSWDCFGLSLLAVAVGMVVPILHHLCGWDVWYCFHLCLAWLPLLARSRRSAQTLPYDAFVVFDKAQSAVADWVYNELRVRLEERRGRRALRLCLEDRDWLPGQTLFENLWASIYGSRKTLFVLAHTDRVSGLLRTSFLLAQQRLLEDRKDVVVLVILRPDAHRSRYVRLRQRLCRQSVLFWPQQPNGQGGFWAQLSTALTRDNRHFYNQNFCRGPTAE

Binder | binding [1] | binding [2] | binding [3]
UNC93B1-flag-TEV-HA, wild type (protein, UniProt Q8VCW4 1-598, N-glycosylated at N251 and N272) MEVEPPLYPVAGAAGPQGDEDRHGVPDGPEAPLDELVGAYPNYNEEEEERRYYRRKRLGVVKNVLAASTGVTLTYGVYLGLLQMQLILHYDETYREVKYGNMGLPDIDSKMLMGINVTPIAALLYTPVLIRFFGTKWMMFLAVGIYALFVSTNYWERYYTLVPSAVALGMAIVPLWASMGNYITRMSQKYYEYSHYKEQDEQGPQQRPPRGSHAPYLLVFQAIFYSFFHLSFACAQLPMIYFLNNYLYDLNHTLINVQSCGTKSQGILNGFNKTVLRTLPRSKNLIVVESVLMAVAFLAMLMVLGLCGAAYRPTEEIDLRSVGWGNIFQLPFKHVRDFRLRHLVPFFIYSGFEVLFACTGFALGYGVCSMGLERLAYLLIAYSLGASASSVLGLLGLWLPRSVPLVAGAGLHLLLTLSLFFWAPAPRVLQHSWIFYFVAALWGVGSALNKTGLSTLLGILYEDKERQDFIFTIYHWWQAVAIFVVYLGSSLPMKAKLAVLLVTLVAAAASYLWMEQKLQQGLVPRQPRIPKPQHKVRGYRYLEEDNSDESDMEGEQGQGDCAEDEAPQAGPLGAEPAGPCRKPCPYEQALGGDGPEEQ | binds | binds | 
UNC93B1(N251Q)-flag-TEV-HA (protein, UniProt Q8VCW4 1-598, N-glycosylated at N272) MEVEPPLYPVAGAAGPQGDEDRHGVPDGPEAPLDELVGAYPNYNEEEEERRYYRRKRLGVVKNVLAASTGVTLTYGVYLGLLQMQLILHYDETYREVKYGNMGLPDIDSKMLMGINVTPIAALLYTPVLIRFFGTKWMMFLAVGIYALFVSTNYWERYYTLVPSAVALGMAIVPLWASMGNYITRMSQKYYEYSHYKEQDEQGPQQRPPRGSHAPYLLVFQAIFYSFFHLSFACAQLPMIYFLNNYLYDLQHTLINVQSCGTKSQGILNGFNKTVLRTLPRSKNLIVVESVLMAVAFLAMLMVLGLCGAAYRPTEEIDLRSVGWGNIFQLPFKHVRDFRLRHLVPFFIYSGFEVLFACTGFALGYGVCSMGLERLAYLLIAYSLGASASSVLGLLGLWLPRSVPLVAGAGLHLLLTLSLFFWAPAPRVLQHSWIFYFVAALWGVGSALNKTGLSTLLGILYEDKERQDFIFTIYHWWQAVAIFVVYLGSSLPMKAKLAVLLVTLVAAAASYLWMEQKLQQGLVPRQPRIPKPQHKVRGYRYLEEDNSDESDMEGEQGQGDCAEDEAPQAGPLGAEPAGPCRKPCPYEQALGGDGPEEQ | binds | binds | 
UNC93B1(N272Q)-flag-TEV-HA (protein, UniProt Q8VCW4 1-598, N-glycosylated at N251) MEVEPPLYPVAGAAGPQGDEDRHGVPDGPEAPLDELVGAYPNYNEEEEERRYYRRKRLGVVKNVLAASTGVTLTYGVYLGLLQMQLILHYDETYREVKYGNMGLPDIDSKMLMGINVTPIAALLYTPVLIRFFGTKWMMFLAVGIYALFVSTNYWERYYTLVPSAVALGMAIVPLWASMGNYITRMSQKYYEYSHYKEQDEQGPQQRPPRGSHAPYLLVFQAIFYSFFHLSFACAQLPMIYFLNNYLYDLNHTLINVQSCGTKSQGILNGFQKTVLRTLPRSKNLIVVESVLMAVAFLAMLMVLGLCGAAYRPTEEIDLRSVGWGNIFQLPFKHVRDFRLRHLVPFFIYSGFEVLFACTGFALGYGVCSMGLERLAYLLIAYSLGASASSVLGLLGLWLPRSVPLVAGAGLHLLLTLSLFFWAPAPRVLQHSWIFYFVAALWGVGSALNKTGLSTLLGILYEDKERQDFIFTIYHWWQAVAIFVVYLGSSLPMKAKLAVLLVTLVAAAASYLWMEQKLQQGLVPRQPRIPKPQHKVRGYRYLEEDNSDESDMEGEQGQGDCAEDEAPQAGPLGAEPAGPCRKPCPYEQALGGDGPEEQ | binds | binds | 
UNC93B1-GFP, wild type (protein, UniProt Q8VCW4 1-598, N-glycosylated at N251 and N272) MEVEPPLYPVAGAAGPQGDEDRHGVPDGPEAPLDELVGAYPNYNEEEEERRYYRRKRLGVVKNVLAASTGVTLTYGVYLGLLQMQLILHYDETYREVKYGNMGLPDIDSKMLMGINVTPIAALLYTPVLIRFFGTKWMMFLAVGIYALFVSTNYWERYYTLVPSAVALGMAIVPLWASMGNYITRMSQKYYEYSHYKEQDEQGPQQRPPRGSHAPYLLVFQAIFYSFFHLSFACAQLPMIYFLNNYLYDLNHTLINVQSCGTKSQGILNGFNKTVLRTLPRSKNLIVVESVLMAVAFLAMLMVLGLCGAAYRPTEEIDLRSVGWGNIFQLPFKHVRDFRLRHLVPFFIYSGFEVLFACTGFALGYGVCSMGLERLAYLLIAYSLGASASSVLGLLGLWLPRSVPLVAGAGLHLLLTLSLFFWAPAPRVLQHSWIFYFVAALWGVGSALNKTGLSTLLGILYEDKERQDFIFTIYHWWQAVAIFVVYLGSSLPMKAKLAVLLVTLVAAAASYLWMEQKLQQGLVPRQPRIPKPQHKVRGYRYLEEDNSDESDMEGEQGQGDCAEDEAPQAGPLGAEPAGPCRKPCPYEQALGGDGPEEQ |  |  | binds
UNC93B1(N272Q)-GFP (protein, UniProt Q8VCW4 1-598, N-glycosylated at N251) MEVEPPLYPVAGAAGPQGDEDRHGVPDGPEAPLDELVGAYPNYNEEEEERRYYRRKRLGVVKNVLAASTGVTLTYGVYLGLLQMQLILHYDETYREVKYGNMGLPDIDSKMLMGINVTPIAALLYTPVLIRFFGTKWMMFLAVGIYALFVSTNYWERYYTLVPSAVALGMAIVPLWASMGNYITRMSQKYYEYSHYKEQDEQGPQQRPPRGSHAPYLLVFQAIFYSFFHLSFACAQLPMIYFLNNYLYDLNHTLINVQSCGTKSQGILNGFQKTVLRTLPRSKNLIVVESVLMAVAFLAMLMVLGLCGAAYRPTEEIDLRSVGWGNIFQLPFKHVRDFRLRHLVPFFIYSGFEVLFACTGFALGYGVCSMGLERLAYLLIAYSLGASASSVLGLLGLWLPRSVPLVAGAGLHLLLTLSLFFWAPAPRVLQHSWIFYFVAALWGVGSALNKTGLSTLLGILYEDKERQDFIFTIYHWWQAVAIFVVYLGSSLPMKAKLAVLLVTLVAAAASYLWMEQKLQQGLVPRQPRIPKPQHKVRGYRYLEEDNSDESDMEGEQGQGDCAEDEAPQAGPLGAEPAGPCRKPCPYEQALGGDGPEEQ |  |  | binds
